Assay results as given in patent US8263754B2, “Amphiphiles for protein solubilization and stabilization” (Wisconsin Alumni Research Foundation, priority 2008, dated 2012).
“Also recorded” adds a separate entry of the source. At least one compound was matched to its structure with a doubt left.

Assay: Critical micelle concentration (CMC) by dye solubilization (Orange OT or DPH)
Type: physicochemical
Details: under the specific conditions employed
Source text: Aqueous solubilization of Orange OT was used to determine critical micelle concentrations (CMC). […] Facile self-association of these amphiphiles under these conditions may be hindered by the hydrophilicity and/or steric bulk of the triglucoside and dimaltoside headgroups.
The Critical Micelle Concentrations (CMCs) of compounds of the invention can be determined by standard techniques known to those of skill in the art. For example, CMCs of the carbohydrate-based amphiphiles described herein can be determined by monitoring uptake of a dye (e.g., Orange OT or 1,6-diphenylhexatriene) with increasing detergent concentration, monitored by UV-visible or fluorescence spectroscopy.

| SMILES | solubilization of Orange OT |
| --- | --- |
| CCCCC(CCCC)(CC(=O)NC(COC1OC(CO)C(O)C(O)C1O)(COC1OC(CO)C(O)C(O)C1O)COC1OC(CO)C(O)C(O)C1O)c1ccccc1 (centres unmarked) [TPA3] | Neither TPA-3 nor TPA-5 solubilized Orange OT |
| CCCCC(CCCC)(CC(=O)NC(CO[C@@H]1O[C@H](CO)[C@@H](O[C@H]2O[C@H](CO)[C@@H](O)[C@H](O)[C@H]2O)[C@H](O)[C@H]1O)CO[C@@H]1O[C@H](CO)[C@@H](O[C@H]2O[C@H](CO)[C@@H](O)[C@H](O)[C@H]2O)[C@H](O)[C@H]1O)c1ccccc1 [TPA5] | Neither TPA-3 nor TPA-5 solubilized Orange OT; also recorded: failed to solubilize Orange OT |
